# Assay results as given in PubChem BioAssay (EPA / NIEHS).
# Chains of the proteins cited; added tags and fusions are not shown. Lines headed by an entry give the natural chain unless they say otherwise; changes in a name come on top.
# UniProt Q05209: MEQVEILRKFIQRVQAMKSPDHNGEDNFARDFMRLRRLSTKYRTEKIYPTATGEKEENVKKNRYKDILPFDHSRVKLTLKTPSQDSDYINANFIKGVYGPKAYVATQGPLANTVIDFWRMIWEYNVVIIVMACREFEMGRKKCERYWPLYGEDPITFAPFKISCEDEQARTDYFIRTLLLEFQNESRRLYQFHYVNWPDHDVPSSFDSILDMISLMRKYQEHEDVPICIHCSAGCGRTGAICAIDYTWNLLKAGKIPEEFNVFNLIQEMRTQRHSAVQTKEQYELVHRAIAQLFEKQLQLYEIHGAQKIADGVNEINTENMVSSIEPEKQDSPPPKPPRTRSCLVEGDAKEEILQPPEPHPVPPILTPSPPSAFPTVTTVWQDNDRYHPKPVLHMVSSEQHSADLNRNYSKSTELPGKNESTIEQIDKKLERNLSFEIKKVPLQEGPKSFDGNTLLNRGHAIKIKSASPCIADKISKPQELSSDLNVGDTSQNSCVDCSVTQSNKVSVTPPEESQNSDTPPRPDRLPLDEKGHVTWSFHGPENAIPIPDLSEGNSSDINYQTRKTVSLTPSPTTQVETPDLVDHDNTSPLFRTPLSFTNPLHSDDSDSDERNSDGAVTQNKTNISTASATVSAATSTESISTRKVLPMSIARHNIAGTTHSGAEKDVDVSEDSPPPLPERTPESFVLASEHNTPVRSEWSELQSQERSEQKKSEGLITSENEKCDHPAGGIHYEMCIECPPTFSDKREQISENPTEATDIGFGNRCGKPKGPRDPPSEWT
# UniProt Q95136, whole entry, looked up: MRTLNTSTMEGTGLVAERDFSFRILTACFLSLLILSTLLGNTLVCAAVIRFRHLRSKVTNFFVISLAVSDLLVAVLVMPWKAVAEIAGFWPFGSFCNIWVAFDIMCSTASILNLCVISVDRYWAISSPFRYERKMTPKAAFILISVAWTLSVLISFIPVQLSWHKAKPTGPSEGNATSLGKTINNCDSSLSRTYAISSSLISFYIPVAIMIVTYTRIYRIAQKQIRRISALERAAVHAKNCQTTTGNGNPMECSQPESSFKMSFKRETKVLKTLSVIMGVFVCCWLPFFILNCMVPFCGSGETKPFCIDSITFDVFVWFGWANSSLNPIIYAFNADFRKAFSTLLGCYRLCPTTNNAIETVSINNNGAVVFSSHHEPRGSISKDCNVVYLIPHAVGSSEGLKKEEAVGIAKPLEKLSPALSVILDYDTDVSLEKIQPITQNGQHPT
# UniProt P21728, whole entry, looked up: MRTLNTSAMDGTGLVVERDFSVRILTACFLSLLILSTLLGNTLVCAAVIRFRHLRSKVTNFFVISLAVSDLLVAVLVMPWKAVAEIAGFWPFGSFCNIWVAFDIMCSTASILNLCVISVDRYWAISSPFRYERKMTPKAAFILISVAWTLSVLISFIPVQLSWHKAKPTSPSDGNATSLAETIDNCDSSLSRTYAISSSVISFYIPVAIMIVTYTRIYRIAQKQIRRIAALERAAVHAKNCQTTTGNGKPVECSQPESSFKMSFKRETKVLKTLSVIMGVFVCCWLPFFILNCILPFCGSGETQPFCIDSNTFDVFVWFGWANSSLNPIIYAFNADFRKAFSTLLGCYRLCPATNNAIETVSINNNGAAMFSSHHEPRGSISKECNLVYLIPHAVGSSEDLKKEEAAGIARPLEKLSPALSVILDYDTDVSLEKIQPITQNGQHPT
# UniProt P49884, whole entry, looked up: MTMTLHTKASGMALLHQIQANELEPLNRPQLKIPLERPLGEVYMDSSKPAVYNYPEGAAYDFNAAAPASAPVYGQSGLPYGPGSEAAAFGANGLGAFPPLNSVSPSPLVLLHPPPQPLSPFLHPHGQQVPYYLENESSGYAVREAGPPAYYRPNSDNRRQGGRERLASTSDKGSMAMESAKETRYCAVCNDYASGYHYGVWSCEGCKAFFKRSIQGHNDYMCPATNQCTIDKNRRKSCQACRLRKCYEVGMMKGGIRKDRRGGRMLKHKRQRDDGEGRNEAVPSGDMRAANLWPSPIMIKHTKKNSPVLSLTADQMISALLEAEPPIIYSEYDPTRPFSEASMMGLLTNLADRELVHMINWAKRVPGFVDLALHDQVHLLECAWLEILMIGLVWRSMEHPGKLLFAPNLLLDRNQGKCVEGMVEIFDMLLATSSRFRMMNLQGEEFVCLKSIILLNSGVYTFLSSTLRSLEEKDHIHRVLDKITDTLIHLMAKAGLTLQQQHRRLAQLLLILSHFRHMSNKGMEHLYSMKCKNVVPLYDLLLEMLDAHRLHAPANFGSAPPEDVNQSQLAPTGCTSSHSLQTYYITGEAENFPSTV
# UniProt P10276, whole entry, looked up: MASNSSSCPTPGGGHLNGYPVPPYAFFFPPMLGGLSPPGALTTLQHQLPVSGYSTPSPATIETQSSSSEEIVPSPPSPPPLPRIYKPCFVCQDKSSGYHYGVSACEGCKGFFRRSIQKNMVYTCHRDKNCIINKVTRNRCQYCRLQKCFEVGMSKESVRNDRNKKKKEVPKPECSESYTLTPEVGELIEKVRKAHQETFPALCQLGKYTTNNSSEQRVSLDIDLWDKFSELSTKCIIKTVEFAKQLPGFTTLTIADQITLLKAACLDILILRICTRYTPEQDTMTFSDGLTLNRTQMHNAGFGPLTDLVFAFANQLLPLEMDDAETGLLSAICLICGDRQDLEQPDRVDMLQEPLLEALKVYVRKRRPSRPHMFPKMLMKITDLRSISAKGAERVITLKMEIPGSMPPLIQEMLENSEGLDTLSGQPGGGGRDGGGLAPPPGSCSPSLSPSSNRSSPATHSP
# UniProt P10827: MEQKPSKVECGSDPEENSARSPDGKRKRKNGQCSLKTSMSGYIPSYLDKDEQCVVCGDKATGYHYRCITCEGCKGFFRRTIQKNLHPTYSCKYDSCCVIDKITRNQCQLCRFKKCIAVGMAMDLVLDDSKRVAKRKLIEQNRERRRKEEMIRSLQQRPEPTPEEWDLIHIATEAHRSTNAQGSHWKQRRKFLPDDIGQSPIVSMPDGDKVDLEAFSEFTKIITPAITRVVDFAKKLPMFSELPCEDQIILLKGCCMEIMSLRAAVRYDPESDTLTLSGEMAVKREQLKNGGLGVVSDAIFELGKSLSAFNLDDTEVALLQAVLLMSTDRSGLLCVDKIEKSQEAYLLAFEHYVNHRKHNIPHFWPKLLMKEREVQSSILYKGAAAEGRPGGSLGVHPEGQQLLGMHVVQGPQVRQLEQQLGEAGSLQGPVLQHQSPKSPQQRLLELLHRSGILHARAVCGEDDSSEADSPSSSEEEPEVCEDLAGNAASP
# UniProt P19793: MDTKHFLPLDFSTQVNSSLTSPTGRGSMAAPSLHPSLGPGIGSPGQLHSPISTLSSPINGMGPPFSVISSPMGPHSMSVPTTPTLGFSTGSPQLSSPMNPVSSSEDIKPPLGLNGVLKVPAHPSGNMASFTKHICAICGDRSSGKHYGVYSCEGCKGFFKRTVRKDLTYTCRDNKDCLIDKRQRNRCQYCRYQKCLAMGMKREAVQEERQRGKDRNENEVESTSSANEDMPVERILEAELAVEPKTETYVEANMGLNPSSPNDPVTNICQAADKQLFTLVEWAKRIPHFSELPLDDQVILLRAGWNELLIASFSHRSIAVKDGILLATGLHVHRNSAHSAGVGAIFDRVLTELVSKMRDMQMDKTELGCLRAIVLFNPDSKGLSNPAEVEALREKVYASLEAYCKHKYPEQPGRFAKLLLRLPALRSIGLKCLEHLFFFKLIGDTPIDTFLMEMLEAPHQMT
# UniProt Q9UNQ0: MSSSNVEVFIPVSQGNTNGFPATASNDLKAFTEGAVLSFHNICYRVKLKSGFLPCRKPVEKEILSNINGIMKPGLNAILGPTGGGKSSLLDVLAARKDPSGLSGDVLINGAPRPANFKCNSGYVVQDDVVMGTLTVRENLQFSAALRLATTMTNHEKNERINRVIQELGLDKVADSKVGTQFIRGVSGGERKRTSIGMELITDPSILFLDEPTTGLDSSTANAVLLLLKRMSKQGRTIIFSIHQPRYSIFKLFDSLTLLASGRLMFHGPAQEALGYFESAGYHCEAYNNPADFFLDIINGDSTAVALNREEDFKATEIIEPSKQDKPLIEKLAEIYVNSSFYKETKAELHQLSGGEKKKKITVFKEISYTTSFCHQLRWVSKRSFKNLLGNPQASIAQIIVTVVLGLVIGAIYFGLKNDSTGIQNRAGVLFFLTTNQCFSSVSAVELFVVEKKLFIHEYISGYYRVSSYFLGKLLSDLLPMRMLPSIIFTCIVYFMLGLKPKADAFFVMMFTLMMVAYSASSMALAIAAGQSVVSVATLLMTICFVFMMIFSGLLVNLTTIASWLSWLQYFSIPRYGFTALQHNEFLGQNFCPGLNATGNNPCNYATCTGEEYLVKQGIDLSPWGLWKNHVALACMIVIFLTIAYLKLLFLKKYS
# Several values for one entry are separate records, joined by “and”; a condition that tells them apart may be missing. Identical values can stand only once. The shares of active, inactive and inconclusive entries below differ from those in the screen. For some of these results: Where the call is inconclusive, the potency comes from a doubtful curve fit. Activity calls are given as the source filed them. How the source made its calls: active means hit-call score of the fitted dose curve at least 0.9, where 1 is the maximum; inconclusive means response in the unintended direction; inactive means score below 0.9.
# Legend:
# [1] = target: Tyrosine-protein phosphatase non-receptor type 12 (Homo sapiens) (UniProt Q05209); test: NVS_ENZ_hPTPN12: NovaScreen (NVS) Enzymatic Assay for human Protein Tyrosine Phosphatase Non-receptor Type 12 (PTPN12) (AID 2283204)
# Method in brief: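 Single-concentration duplicates (25 uM) preceded singleton concentration-response up to 50 uM for chemicals passing threshold. Cell-free recombinant PTPN12 activity was read 1.33 h after dosing via fluorescence after mobility-shift separation; loss of signal versus DMSO.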
# [2] = target: bovine Dopamine Receptor (DR), Non-selective Binding, DRD1 (gene 281125) (UniProt Q95136); test: NVS_GPCR_bDR_NonSelective: NovaScreen (NVS) G Protein-Coupled Receptor Assay for bovine Dopamine Receptor (DR), Non-selective Binding (AID 2283241)
# Method in brief: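 Bovine striatal membranes; radioligand displacement read by filtration and scintillation counting 1 h after dosing, loss of signal vs DMSO. Screened in duplicate at 25 uM, then concentration-response for hits.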
# [3] = target: D(1A) dopamine receptor (Homo sapiens) (UniProt P21728); test: NVS_GPCR_hDRD1: NovaScreen (NVS) G Protein-Coupled Receptor Assay for human Dopamine Receptor D1 (DRD1) (AID 2283269)
# Method in brief: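 Radioligand displacement binding on membranes/protein extracted from HEK293 expressing human D1, cell-free; read 1 h after dosing by filter-based scintillation counting. Primary screen in duplicate at 25 uM, actives followed up in concentration series; signal loss versus DMSO baseline.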
# [4] = target: bovine Estrogen Receptor (ER), ESR1 (gene 407238) (UniProt P49884); test: NVS_NR_bER: NovaScreen (NVS) Nuclear Receptor Binding Assay for bovine Estrogen Receptor (ER) (AID 2283345);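 further: actives lower the bound radioligand count which means they displace the ER ligand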
# Method in brief: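 Cell-free radioligand binding with bovine uterine membrane extracts, read 18 hours after dosing by scintillation counting. Loss of signal versus DMSO baseline indicates displacement. Primary screen run in duplicate at 25 uM, actives followed in concentration series.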
# [5] = target: Retinoic acid receptor alpha (Homo sapiens) (UniProt P10276); test: NVS_NR_hRAR_Antagonist: NovaScreen (NVS) Nuclear Receptor Binding Assay for human Retinoic Acid Alpha Receptor Antagonism (RAR) (AID 2283358)
# Method in brief: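 Cell-free TR-FRET binding assay on extracted receptor protein, run in antagonist mode; signal read 2 hours after chemical dosing. Loss of signal was fitted relative to DMSO baseline. Screened at 25 uM in duplicate, actives followed up in concentration series.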
# [6] = target: human Thyroid Receptor Alpha (TRa), THRA (gene 7067) (UniProt P10827); test: NVS_NR_hTRa_Antagonist: NovaScreen (NVS) Nuclear Receptor Binding Assay for human Thyroid Receptor Alpha Antagonism (TRa) (AID 2283362);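 further: activity is loss of signal relative to DMSO baseline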
# Method in brief: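 Extracted protein, cell-free; 1 h incubation after dosing; AlphaLISA chemiluminescence binding readout. DMSO = baseline/neg ctrl; signal loss = activity. Primary: duplicate, 25 uM; secondary: conc. series on actives.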
# [7] = target: Retinoic acid receptor RXR-alpha (Homo sapiens) (UniProt P19793); test: OT_NURR1_NURR1RXRa_0480: Odyssey Thera (OT) 8-hour HEK293T Protein Complementation Assay for Nurr1/retinoid X receptor (RXR) (AID 2283385)
# Method in brief: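 HEK293T cells expressing Nurr1 and RXRα fused to reporter fragments were dosed with compound for 8 hours. Complex formation was read as fluorescence intensity and analysed as gain of signal against DMSO as baseline.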
# [8] = target: Retinoic acid receptor RXR-alpha (Homo sapiens) (UniProt P19793); test: OT_NURR1_NURR1RXRa_1440: Odyssey Thera (OT) 24-hour HEK293T Protein Complementation Assay for Nurr1/retinoid X receptor (RXR) (AID 2283386)
# Method in brief: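 HEK293T cells were dosed with compound and read 24 h later by fluorescence intensity in a protein-fragment complementation format, where Nurr1–RXRα interaction reconstitutes a split reporter. Activity was fitted as gain of signal relative to DMSO baseline.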
# [9] = Tanguay_ZF_120hpf_SOMI_legacy: (Legacy) Oregon State University Tanguay Lab 120 Hour Post-fertilization zebrafish Assay for Somite Malformation (AID 2283647)
# Method in brief: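 Read-out: presence or absence of somite malformation in 120 hpf larvae, gain-of-signal relative to DMSO baseline. Embryos lacked chorion (pronase, 4 hpf) and were exposed statically from 6 hpf at 28C; dead larvae not scored.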
# [10] = Tanguay_ZF_120hpf_TRUN_legacy: (Legacy) Oregon State University Tanguay Lab 120 Hour Post-fertilization zebrafish Assay for Truncated Body (AID 2283655)
# Method in brief: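 Truncated body is recorded as a binary endpoint at 120 hpf by brightfield imaging of wild-type 5D larvae. Exposure runs statically from 6 hpf at 28C with 0.64% DMSO; embryos dying earlier are not scored.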
# [11] = Tanguay_ZF_120hpf_NC_legacy: (Legacy) Oregon State University Tanguay Lab 120 Hour Post-fertilization zebrafish Assay for Notochord and Tail Malformation (AID 2283656)
# Method in brief: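 Dechorionated 5D zebrafish, 1/well from 6 hpf; static exposure to 120 hpf, 28C, sealed, dark; final DMSO 0.64% v/v. NC scored binary (present/absent); dead embryos not scored. Fit vs DMSO baseline, gain direction.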
# [12] = read-out: Broad substrate specificity ATP-binding cassette transporter ABCG2 (Homo sapiens) (UniProt Q9UNQ0); test: CLD_ABCG2_6hr: CellzDirect (CLD) Gene Expression Assay for ABC Transporter (ABCG2) at 6 hours (AID 2283660)
# Method in brief: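 Primary human hepatocytes dosed daily with chemicals at multiple concentrations (0.2% DMSO vehicle), harvested 6 h after dosing. ABCG2 mRNA induction read by quantitative nuclease protection assay (qNPA) chemiluminescence; gain of signal fitted against DMSO baseline.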
# [13] = read-out: xenobiotic metabolism (CYP1A2), CYP1A2 (gene 1544); test: CLD_CYP1A2_6hr: CellzDirect (CLD) Gene Expression Assay for xenobiotic metabolism (CYP1A2) at 6 hours (AID 2283663);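 further: potency is for induction meaning a rise in mRNA above DMSO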
# Method in brief: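 Primary human hepatocytes from two donor preparations, dosed daily with multiple concentrations in 0.2% DMSO and harvested at 6 h. CYP1A2 mRNA induction measured by chemiluminescent qNPA, gain of signal fitted against DMSO; cytotoxicity flagged morphologically.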
compound,measurement,setting,value
CC(C)=CC1C(C(=O)OCc2coc(Cc3ccccc3)c2)C1(C)C (stereo not drawn),outcome,[1],inactive
same,outcome,[2],inactive
same,AC50,[3],active: 11.5 µM
same,outcome,[4],inactive
same,AC50,[5],inconclusive: 1.42 µM
same,AC50,[6],inconclusive: 25 µM
same,AC50,[7],inconclusive: 50 µM
same,AC50,[8],active: 20.3 µM and inconclusive: 26.9 µM
same,AC50,[9],inconclusive: 2.5 µM
same,AC50,[10],inconclusive: 179 µM
same,AC50,[11],inconclusive: 30.1 µM
same,AC50,[12],inconclusive: 20 µM
same,AC50,[13],inconclusive: 0.0004 µM
